2 molecules from doi:10.1101/2023.11.14.567009 can be followed below.

Sequences of proteins named here, by UniProt entry; tags and fusion partners are left off.
UniProt Q13547: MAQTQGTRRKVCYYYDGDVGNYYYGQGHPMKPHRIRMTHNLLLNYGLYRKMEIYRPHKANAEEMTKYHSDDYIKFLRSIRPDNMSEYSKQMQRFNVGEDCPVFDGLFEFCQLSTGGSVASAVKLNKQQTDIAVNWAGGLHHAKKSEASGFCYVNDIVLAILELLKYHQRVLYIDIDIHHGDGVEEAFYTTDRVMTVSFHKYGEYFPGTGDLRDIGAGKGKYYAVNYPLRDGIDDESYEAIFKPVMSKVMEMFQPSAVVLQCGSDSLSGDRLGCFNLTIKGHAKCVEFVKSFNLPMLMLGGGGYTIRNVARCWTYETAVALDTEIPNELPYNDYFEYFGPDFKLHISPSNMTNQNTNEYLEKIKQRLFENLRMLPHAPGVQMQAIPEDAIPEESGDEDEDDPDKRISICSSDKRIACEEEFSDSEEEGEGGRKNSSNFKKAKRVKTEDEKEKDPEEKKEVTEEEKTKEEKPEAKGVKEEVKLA

For assay [1], the target named is T1, MIDEAS (human (endogenous in Jurkat)) (UniProt Q6PJG2).
T1 sequence: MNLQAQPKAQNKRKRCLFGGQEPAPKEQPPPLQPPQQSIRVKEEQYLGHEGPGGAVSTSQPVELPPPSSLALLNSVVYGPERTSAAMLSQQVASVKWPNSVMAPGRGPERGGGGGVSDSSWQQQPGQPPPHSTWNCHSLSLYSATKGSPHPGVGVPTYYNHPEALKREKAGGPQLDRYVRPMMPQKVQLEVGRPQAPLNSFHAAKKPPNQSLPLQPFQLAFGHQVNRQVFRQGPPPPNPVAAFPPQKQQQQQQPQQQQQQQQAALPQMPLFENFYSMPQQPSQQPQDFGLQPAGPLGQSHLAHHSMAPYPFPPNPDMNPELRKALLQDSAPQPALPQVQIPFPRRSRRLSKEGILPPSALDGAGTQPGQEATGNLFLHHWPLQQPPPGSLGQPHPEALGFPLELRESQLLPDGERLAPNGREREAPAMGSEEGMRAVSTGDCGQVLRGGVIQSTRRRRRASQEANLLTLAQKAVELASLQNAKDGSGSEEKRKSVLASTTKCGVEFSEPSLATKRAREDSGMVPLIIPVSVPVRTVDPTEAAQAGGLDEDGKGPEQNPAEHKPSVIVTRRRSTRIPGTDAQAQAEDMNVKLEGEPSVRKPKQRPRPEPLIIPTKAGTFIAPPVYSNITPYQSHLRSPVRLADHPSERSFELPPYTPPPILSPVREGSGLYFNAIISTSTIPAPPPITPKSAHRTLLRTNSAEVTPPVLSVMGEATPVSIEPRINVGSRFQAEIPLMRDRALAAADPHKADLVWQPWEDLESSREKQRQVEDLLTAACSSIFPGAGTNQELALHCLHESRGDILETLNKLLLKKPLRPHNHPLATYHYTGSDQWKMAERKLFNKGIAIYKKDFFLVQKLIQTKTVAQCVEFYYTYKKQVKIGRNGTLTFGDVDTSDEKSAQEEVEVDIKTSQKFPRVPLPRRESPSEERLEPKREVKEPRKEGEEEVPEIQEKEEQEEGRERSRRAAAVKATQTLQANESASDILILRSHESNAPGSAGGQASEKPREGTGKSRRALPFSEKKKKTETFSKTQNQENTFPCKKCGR
Kind of assay: co-IP.

For assay [2], the target named is T2, NAT10 (human (endogenous in Jurkat)) (UniProt Q9H0A0).
T2 sequence: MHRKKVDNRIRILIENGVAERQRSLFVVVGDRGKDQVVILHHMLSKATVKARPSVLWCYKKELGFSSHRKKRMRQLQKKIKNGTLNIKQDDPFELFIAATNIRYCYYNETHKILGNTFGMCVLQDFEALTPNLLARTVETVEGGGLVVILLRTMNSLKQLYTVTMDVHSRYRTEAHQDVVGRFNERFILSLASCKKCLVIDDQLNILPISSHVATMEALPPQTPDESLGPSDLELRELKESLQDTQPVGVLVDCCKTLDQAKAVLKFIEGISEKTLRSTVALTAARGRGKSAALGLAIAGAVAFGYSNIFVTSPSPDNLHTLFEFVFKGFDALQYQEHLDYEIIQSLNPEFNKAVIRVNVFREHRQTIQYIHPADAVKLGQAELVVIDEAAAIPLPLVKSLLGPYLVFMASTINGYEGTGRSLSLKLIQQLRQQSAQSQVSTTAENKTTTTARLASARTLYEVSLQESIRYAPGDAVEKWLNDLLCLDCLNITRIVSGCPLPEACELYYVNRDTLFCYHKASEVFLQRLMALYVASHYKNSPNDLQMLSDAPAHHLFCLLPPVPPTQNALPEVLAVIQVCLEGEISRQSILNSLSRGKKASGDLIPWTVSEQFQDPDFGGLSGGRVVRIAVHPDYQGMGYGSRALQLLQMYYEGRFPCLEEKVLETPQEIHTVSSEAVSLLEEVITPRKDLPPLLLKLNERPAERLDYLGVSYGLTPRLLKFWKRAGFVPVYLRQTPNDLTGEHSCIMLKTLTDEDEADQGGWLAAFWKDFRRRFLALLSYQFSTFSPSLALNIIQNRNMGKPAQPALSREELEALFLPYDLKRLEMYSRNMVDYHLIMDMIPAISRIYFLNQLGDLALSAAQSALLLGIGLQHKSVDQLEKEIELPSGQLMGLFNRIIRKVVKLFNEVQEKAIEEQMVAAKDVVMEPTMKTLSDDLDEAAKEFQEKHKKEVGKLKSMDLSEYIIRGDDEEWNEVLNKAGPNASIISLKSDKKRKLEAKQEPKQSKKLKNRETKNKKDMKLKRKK
The assay can be described thus: co-IP.

Results are given in words; binding and its absence hold for the method and conditions named. In cells and extracts the contact can be indirect. Some binding calls cover weakened binding; strength is not graded here.

For “HDAC1 (from UniProt Q13547 1-482) (enzyme)”, the binding result in assay [1] and in assay [2] was “binds” throughout.

B1: MIDEAS (protein, UniProt Q6PJG2 1-1045)
chain: T1 sequence
Regarding B1, the binding result in assay [2] is recorded as “binds”.
